Experimental data: PMC11986068
Where two headings read alike, the source gives them in different places. Results are given in words; binding and its absence hold for the method and conditions named. Binding seen in cells or lysates may run through a third protein. Some entries that bind do so weakly or less than the wild type. For part of these data: Tags and fused reporters may be left off the sequences shown. Values belong to the molecule of their own block, whether it stands above or below them.

Chains of the proteins cited; added tags and fusions are not shown. Lines headed by an entry give the natural chain unless they say otherwise; changes in a name come on top. A line that says so, or that is headed by a name, gives the form on record, which may keep a tag or linker.
UniProt P11276: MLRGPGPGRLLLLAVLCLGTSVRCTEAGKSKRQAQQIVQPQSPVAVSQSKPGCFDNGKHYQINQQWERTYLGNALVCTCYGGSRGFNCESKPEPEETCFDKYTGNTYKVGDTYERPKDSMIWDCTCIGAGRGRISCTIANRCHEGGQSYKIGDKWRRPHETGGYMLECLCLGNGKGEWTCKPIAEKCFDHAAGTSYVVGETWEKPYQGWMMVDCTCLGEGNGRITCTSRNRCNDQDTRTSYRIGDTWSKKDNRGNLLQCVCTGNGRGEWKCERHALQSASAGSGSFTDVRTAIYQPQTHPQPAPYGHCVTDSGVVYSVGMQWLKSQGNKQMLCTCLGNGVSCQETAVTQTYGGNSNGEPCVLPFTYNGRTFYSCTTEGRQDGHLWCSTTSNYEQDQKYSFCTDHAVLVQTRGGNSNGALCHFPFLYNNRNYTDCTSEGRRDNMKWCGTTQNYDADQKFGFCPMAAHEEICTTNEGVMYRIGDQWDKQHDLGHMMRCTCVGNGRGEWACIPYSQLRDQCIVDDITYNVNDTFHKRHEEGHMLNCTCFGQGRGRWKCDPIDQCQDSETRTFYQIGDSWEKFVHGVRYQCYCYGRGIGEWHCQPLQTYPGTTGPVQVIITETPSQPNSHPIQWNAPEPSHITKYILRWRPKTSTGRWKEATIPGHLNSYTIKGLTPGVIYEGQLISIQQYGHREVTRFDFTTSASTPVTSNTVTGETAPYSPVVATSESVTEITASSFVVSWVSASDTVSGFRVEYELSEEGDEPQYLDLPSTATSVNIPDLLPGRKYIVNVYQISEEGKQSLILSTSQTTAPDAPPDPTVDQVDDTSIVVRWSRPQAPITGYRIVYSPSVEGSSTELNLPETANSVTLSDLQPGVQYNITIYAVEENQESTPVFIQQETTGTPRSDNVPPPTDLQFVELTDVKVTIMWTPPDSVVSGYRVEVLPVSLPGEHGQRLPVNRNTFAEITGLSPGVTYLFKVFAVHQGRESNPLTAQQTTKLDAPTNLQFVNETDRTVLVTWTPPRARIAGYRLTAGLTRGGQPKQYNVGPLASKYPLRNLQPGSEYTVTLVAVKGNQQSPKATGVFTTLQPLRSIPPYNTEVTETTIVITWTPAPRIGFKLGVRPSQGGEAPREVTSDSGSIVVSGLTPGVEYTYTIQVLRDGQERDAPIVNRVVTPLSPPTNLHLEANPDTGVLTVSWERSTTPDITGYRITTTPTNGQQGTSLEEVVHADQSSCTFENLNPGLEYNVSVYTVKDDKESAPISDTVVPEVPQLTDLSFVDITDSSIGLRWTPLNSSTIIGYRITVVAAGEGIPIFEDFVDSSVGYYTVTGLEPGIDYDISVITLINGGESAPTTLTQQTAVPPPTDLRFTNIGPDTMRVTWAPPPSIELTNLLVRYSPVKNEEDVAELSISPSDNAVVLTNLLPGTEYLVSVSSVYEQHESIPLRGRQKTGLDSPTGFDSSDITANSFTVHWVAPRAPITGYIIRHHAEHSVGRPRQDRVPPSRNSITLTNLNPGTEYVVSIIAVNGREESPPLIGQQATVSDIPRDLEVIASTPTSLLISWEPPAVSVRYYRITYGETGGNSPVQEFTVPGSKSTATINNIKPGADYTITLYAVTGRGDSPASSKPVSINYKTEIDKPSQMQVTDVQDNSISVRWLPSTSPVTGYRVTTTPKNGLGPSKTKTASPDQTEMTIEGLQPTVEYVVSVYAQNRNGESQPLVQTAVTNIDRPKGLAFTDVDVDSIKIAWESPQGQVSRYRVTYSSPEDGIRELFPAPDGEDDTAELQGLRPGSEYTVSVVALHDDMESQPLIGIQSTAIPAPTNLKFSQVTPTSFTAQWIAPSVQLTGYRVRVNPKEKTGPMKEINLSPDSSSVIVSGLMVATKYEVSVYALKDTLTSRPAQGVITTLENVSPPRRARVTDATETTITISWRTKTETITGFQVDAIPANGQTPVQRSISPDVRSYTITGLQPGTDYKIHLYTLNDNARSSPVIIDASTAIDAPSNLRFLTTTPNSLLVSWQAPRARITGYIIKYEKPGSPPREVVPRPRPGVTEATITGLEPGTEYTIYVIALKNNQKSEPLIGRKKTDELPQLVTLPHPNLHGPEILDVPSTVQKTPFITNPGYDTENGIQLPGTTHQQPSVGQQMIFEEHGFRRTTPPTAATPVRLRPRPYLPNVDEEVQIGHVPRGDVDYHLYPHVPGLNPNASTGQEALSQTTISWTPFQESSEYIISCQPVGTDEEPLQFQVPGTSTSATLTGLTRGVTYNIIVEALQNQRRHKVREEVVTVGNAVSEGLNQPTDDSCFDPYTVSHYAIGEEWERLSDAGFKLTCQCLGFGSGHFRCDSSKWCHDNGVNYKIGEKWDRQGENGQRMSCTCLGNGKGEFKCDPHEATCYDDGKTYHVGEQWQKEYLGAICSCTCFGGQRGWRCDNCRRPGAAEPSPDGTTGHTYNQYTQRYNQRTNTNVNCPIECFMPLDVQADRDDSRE
Fn1 truncation mutant lacking FNI (2296-2425 aa) (P11276, form named): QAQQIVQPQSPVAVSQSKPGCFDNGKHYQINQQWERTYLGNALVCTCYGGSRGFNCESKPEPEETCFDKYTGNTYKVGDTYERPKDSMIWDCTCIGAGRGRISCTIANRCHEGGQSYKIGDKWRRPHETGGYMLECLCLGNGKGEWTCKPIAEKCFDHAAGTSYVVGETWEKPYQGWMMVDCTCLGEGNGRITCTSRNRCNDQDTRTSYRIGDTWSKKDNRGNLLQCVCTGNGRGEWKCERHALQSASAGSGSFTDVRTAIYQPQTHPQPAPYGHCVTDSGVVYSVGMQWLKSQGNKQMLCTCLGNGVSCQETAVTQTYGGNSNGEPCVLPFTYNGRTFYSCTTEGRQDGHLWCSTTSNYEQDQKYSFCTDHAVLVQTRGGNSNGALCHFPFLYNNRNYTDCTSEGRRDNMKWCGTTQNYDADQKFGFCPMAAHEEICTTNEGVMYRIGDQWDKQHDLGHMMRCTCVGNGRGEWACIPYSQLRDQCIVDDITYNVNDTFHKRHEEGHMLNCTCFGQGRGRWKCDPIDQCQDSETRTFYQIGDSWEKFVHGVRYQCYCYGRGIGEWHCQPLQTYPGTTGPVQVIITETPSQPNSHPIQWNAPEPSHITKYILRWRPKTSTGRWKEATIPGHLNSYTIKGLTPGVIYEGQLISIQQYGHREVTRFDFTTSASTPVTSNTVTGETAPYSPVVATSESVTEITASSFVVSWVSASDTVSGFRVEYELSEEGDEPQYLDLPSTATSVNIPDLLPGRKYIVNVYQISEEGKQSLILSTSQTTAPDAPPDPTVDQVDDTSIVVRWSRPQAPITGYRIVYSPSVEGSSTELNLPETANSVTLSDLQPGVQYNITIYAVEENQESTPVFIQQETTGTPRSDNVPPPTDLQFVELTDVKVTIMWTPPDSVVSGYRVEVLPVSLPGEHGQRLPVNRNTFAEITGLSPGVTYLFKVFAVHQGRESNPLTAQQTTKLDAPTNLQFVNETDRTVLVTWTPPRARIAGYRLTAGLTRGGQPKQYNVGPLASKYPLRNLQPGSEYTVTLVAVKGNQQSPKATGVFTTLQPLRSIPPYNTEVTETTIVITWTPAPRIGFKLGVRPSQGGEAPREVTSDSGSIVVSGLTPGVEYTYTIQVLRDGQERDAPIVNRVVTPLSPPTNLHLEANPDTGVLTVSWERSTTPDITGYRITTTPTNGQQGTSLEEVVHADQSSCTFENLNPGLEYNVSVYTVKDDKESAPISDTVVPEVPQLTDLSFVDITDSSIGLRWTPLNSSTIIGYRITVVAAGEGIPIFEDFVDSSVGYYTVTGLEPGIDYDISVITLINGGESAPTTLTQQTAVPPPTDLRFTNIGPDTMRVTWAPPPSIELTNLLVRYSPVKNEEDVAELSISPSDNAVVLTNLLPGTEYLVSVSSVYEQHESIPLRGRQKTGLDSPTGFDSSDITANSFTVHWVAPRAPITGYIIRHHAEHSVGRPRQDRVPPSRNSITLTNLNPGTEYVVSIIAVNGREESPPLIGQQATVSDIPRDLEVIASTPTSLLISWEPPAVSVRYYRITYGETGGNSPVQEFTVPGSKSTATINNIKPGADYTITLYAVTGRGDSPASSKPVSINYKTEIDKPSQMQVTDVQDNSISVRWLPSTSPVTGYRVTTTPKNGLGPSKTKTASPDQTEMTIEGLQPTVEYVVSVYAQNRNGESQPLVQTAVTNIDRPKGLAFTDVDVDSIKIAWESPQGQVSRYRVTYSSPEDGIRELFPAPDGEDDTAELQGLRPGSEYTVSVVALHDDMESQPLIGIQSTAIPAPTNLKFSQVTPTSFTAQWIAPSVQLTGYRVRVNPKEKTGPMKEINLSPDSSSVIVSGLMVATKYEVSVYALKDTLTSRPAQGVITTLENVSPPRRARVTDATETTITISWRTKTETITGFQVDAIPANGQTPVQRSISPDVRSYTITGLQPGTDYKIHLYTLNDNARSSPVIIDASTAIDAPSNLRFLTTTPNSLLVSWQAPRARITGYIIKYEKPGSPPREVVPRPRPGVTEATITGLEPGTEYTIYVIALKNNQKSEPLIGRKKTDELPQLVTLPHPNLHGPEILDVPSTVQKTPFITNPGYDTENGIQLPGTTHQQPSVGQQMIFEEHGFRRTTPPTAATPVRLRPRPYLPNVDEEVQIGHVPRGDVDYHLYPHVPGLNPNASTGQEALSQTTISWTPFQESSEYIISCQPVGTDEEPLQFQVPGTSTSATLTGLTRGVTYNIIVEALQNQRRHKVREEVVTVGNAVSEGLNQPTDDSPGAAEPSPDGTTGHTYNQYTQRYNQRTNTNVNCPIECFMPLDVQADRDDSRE

Tests used:
[1] = molecular target: His-labeled recombinant NELL2 (UniProt Q61220); experiment: pull-down; BMSC membrane proteins incubated with His-labeled recombinant NELL2 and anti-His antibody, protein A/G magnetic beads, room temperature 30 min; Western blotting for Fn1; only the target purified
NELL2-Myc (in ST2 cells) = NELL2-Myc (in ST2 cells) (UniProt Q61220); experiment: co-IP; ST2 cells transfected with NELL2-Myc with or without Fn1 siRNA; immunoprecipitation with anti-Myc antibody; endogenous Fn1 and ITGB1 detected
NELL2-Myc [2] = molecular target: NELL2-Myc (UniProt Q61220); experiment: co-IP; 293 T cells co-transfected with Myc- and HA-tagged constructs; lysates immunoprecipitated with protein A/G magnetic beads conjugated with anti-HA or anti-Myc; Western blotting with anti-Myc or anti-HA
NELL2-Myc [3] = molecular target: NELL2-Myc (UniProt Q61220); experiment: co-IP; 293 T cells co-transfected with NELL2-Myc (1 μg) and Fn1-HA (1 μg) along with 0-2 μg of Fn1 C-terminal-HA construct; immunoprecipitation with anti-Myc, Western blotting with anti-HA and anti-Myc
Fn1 C-terminal-HA = Fn1 C-terminal-HA (UniProt P11276); experiment: co-IP; 293 T cells co-transfected with Myc- and HA-tagged constructs; lysates immunoprecipitated with protein A/G magnetic beads conjugated with anti-HA or anti-Myc; Western blotting with anti-Myc or anti-HA
Fn1-HA [4] = molecular target: Fn1-HA (UniProt P11276); experiment: as above
Fn1-HA [5] = molecular target: Fn1-HA (UniProt P11276); experiment: as above; remark: listed apart in the source

binding [1]: binds
Molecule: Fibronectin 1 (Fn1), endogenous in BMSC membrane proteins (from UniProt P11276 33-2477)

binding (NELL2-Myc (in ST2 cells)): binds
Molecule: Fibronectin 1 (Fn1), endogenous in ST2 cells (from UniProt P11276 33-2477)

binding (NELL2-Myc [2]): binds
Molecule: Fn1 C-terminal-HA (from UniProt P11276 2296-2425) (domain or fragment)

binding (NELL2-Myc [2]): binds
Molecule: Fn1 truncation mutant lacking FNI (2296-2425 aa) (from UniProt P11276 33-2477)

binding (NELL2-Myc [2]): binds
binding (NELL2-Myc [3]): binds
Molecule: Fn1-HA (from UniProt P11276 33-2477)

binding (Fn1 C-terminal-HA): binds
binding (Fn1-HA [4]): binds
Molecule: NELL2-Myc (from UniProt Q61220 25-819)

binding (Fn1-HA [5]): binds
B1: NELL2-Myc truncate lacking the EGF-like (406-644 aa) domain (protein, UniProt Q61220)
chain: LGVDPSLQIDVLTELELGESTDGVRQVPGLHNGTKAFLFQESPRSIKASTATAERFFQKLRNKHEFTILVTLKQIHLNSGVILSIHHLDHRYLELESSGHRNEIRLHYRSGTHRPHTEVFPYILADAKWHKLSLAFSASHLILHIDCNKIYERVVEMPSTDLPLGTTFWLGQRNNAHGYFKGIMQDVHVLVMPQGFIAQCPDLNRTCPTCNDFHGLVQKIMELQDILSKTSAKLSRAEQRMNRLDQCYCERTCTVKGTTYRESESWTDGCKNCTCLNGTIQCETLVCPAPDCPPKSAPAYVDGKCCKECKSTCQFQGRSYFEGERNTVYSSSGMCVLYECKDQTMKLVENIGCPPLDCPESHQIALSHSCCKVCKGYDFCSHEGKVKHTGQIWVLENDRCSVCSCQTGFVMCRRMVCDCENPTVDLSCCPECDPRLSSQCLHQNGETVYNSGDTWVQDCRQCRCLQGEVDCWPLACPEVECEFSVLPENECCPRCVTDPCQADTIRNDITKTCLDEMNVVRFTGSSWIKHGTECTLCQCKNGHLCCSVDPQCLQEL
